Measurements published in the supplement of paper PMC4604168 (melanoma cell lines).
The other results are listed elsewhere or left out. Single values are uncertain, as repeats are few or missing.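 Cells were imaged in 1,536-well plates, and nuclei stained with an antibody against cleaved PARP were counted against all DNA-stained nuclei to give the apoptosis fraction. Screening doses were chosen to leave most cells alive, and resting and induced cleaved-PARP levels differ strongly between cell lines.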

Assays:
Assay in all cases: cleaved PARP positive nuclei fraction relative to DMSO control; melanoma cells; higher = more apoptosis
Settings in all cases: library dose: low library concentration; 72 h
WM115 = system: WM115
WM1716 = system: WM1716
WM1745 = system: WM1745
WM3526 = system: WM3526
WM3619 = system: WM3619
WM451Lu = system: WM451Lu

| SMILES | cleaved PARP positive nuclei fraction (WM115) | cleaved PARP positive nuclei fraction (WM1716) | cleaved PARP positive nuclei fraction (WM1745) | cleaved PARP positive nuclei fraction (WM3526) | cleaved PARP positive nuclei fraction (WM3619) | cleaved PARP positive nuclei fraction (WM451Lu) |
| --- | --- | --- | --- | --- | --- | --- |
| CS(=O)(=O)c1ccc(C(=O)Nc2ccc(Cl)c(-c3ccccn3)c2)c(Cl)c1 [vismodegib] + C[C@@H](Oc1cc(-c2cnn(C3CCNCC3)c2)cnc1N)c1c(Cl)ccc(F)c1Cl [Crizotinib] (first compound 1 µM, partner dose 0.2 µM) | 108% | 186% | 86.9% | 36.7% | 87.2% | 95.8% |
| CC(=O)O[C@@]12CO[C@@H]1C[C@H](O)[C@@]1(C)C(=O)[C@H](O)C3=C(C)[C@@H](OC(=O)[C@H](O)[C@@H](NC(=O)OC(C)(C)C)c4ccccc4)C[C@@](O)([C@@H](OC(=O)c4ccccc4)[C@H]21)C3(C)C [Docetaxel] + Clc1ccc(Nc2nnc(Cc3ccncc3)c3ccccc23)cc1 [vatalanib] (first compound 0.0001 µM, partner dose 2 µM) | 268% | 136% | 160% | 46.2% | 129% | 57.5% |
| C[C@]1(O)C[C@@H](c2nc(-c3ccc4ccc(-c5ccccc5)nc4c3)c3c(N)nccn32)C1 + COc1ccc(Cl)c(Nc2nc3ccccc3nc2NS(=O)(=O)c2cccc(NC(=O)C(C)(C)N)c2)c1 [XL147] (first compound 0.4 µM, partner dose 0.8 µM) | 44.7% | 62% | 118% | 52.8% | 198% | 157% |
| Cn1cnc2c(F)c(Nc3ccc(Br)cc3Cl)c(C(=O)NOCCO)cc21 [selumetinib] + O=C1NC(=O)/C(=C/c2ccc(-c3ccc(F)cc3O)o2)S1 [AS252424] (first compound 0.015 µM, partner dose 1 µM) | 138% | 51.9% | 91.3% | 139% | 136% | 96.3% |
| NC1(c2ccc(-c3nc4ccn5c(=O)[nH]nc5c4cc3-c3ccccc3)cc2)CCC1 + COc1cc(Nc2ncc(F)c(Nc3ccc4c(n3)NC(=O)C(C)(C)O4)n2)cc(OC)c1OC [Tamatinib] (first compound 0.4 µM, partner dose 0.4 µM) | 341% | 129% | 131% | 71.1% | 114% | 46.8% |
| CCCCCCCCc1ccc(CCC(N)(CO)CO)cc1 [fingolimod] + C=CCNC1=C2C[C@@H](C)C[C@H](OC)[C@H](O)[C@@H](C)/C=C(\C)[C@H](OC(N)=O)[C@@H](OC)/C=C\C=C(/C)C(=O)NC(=CC1=O)C2=O [Tanespimycin] (first compound 2 µM, partner dose 0.002 µM) | 51.3% | 126% | 145% | 307% | 133% | 79% |
| COc1ccc(C2=N[C@@H](c3ccc(Cl)cc3)[C@@H](c3ccc(Cl)cc3)N2C(=O)N2CCNC(=O)C2)c(OC(C)C)c1 [Nutlin-3] + N#Cc1c(O)c2c(-c3ccc(-c4ccccc4O)cc3)csc2[nH]c1=O [A769662] (first compound 0.1 µM, partner dose 2 µM) | 146% | 85.5% | 96.8% | 70.3% | 70.5% | 138% |
| C[C@@H](N)c1ccc(C(=O)Nc2ccnc3[nH]ccc23)cc1 + NC1(c2ccc(-c3nc4ccn5c(=O)[nH]nc5c4cc3-c3ccccc3)cc2)CCC1 [MK2206] (first compound 0.4 µM, partner dose 0.4 µM) | 309% | 542% | 128% | 205% | 104% | 507% |
| C[C@@H](N)c1ccc(C(=O)Nc2ccnc3[nH]ccc23)cc1 + Nc1ncn([C@H]2C[C@H](O)[C@@H](CO)O2)c(=O)n1 [decitabine] (first compound 0.4 µM, partner dose 0.1 µM) | 125% | 128% | 112% | 154% | 94.4% | 64.9% |
| COc1ccc(C2=N[C@@H](c3ccc(Cl)cc3)[C@@H](c3ccc(Cl)cc3)N2C(=O)N2CCNC(=O)C2)c(OC(C)C)c1 [Nutlin-3] + C[C@@H]1CCN(C(=O)CC#N)C[C@@H]1N(C)c1ncnc2[nH]ccc12 [CP690550] (first compound 0.1 µM, partner dose 1 µM) | 85% | 162% | 215% | 120% | 67.1% | 99.5% |
| COc1ccc(C2=N[C@@H](c3ccc(Cl)cc3)[C@@H](c3ccc(Cl)cc3)N2C(=O)N2CCNC(=O)C2)c(OC(C)C)c1 [Nutlin-3] + Nc1cccc2c1CN(C1CCC(=O)NC1=O)C2=O [lenalidomide] (first compound 0.1 µM, partner dose 1 µM) | 114% | 208% | 108% | 44.4% | 103% | 105% |
| CC(=O)O[C@@]12CO[C@@H]1C[C@H](O)[C@@]1(C)C(=O)[C@H](O)C3=C(C)[C@@H](OC(=O)[C@H](O)[C@@H](NC(=O)OC(C)(C)C)c4ccccc4)C[C@@](O)([C@@H](OC(=O)c4ccccc4)[C@H]21)C3(C)C [Docetaxel] + Cc1cc(Nc2cc(N3CCN(C)CC3)nc(/C=C/c3ccccc3)n2)n[nH]1 [ENMD2076] (first compound 0.0001 µM, partner dose 0.04 µM) | 79.4% | 65.6% | 147% | 67.1% | 144% | 61.5% |
| Cn1cnc2c(F)c(Nc3ccc(Br)cc3Cl)c(C(=O)NOCCO)cc21 [selumetinib] + CC(C)C[C@H](NC(=O)[C@H](Cc1ccccc1)NC(=O)c1cnccn1)B(O)O [Bortezomib] (first compound 0.015 µM, partner dose 0.001 µM) | 153% | 55.3% | 110% | 27.4% | 269% | 101% |
| CCCCCCCCc1ccc(CCC(N)(CO)CO)cc1 [fingolimod] + COc1ccc(Cl)c(Nc2nc3ccccc3nc2NS(=O)(=O)c2cccc(NC(=O)C(C)(C)N)c2)c1 [XL147] (first compound 2 µM, partner dose 0.8 µM) | 67.9% | 48.2% | 119% | 155% | 76% | 42.9% |
| CN(c1ncccc1CNc1nc(Nc2ccc3c(c2)CC(=O)N3)ncc1C(F)(F)F)S(C)(=O)=O + Nc1cccc2c1CN(C1CCC(=O)NC1=O)C2=O [lenalidomide] (first compound 0.08 µM, partner dose 1 µM) | 149% | 304% | 138% | 60.5% | 89.3% | 204% |
| CC1(C)CCC(c2ccc(Cl)cc2)=C(CN2CCN(c3ccc(C(=O)NS(=O)(=O)c4ccc(N[C@H](CCN5CCOCC5)CSc5ccccc5)c(S(=O)(=O)C(F)(F)F)c4)cc3)CC2)C1 + C=CCn1c(=O)c2cnc(Nc3ccc(N4CCN(C)CC4)cc3)nc2n1-c1cccc(C(C)(C)O)n1 [MK1775] (first compound 0.4 µM, partner dose 0.02 µM) | 594% | 309% | 1560% | 92.8% | 251% | 30.3% |
| CCCCCCCCc1ccc(CCC(N)(CO)CO)cc1 [fingolimod] + C=CCn1c(=O)c2cnc(Nc3ccc(N4CCN(C)CC4)cc3)nc2n1-c1cccc(C(C)(C)O)n1 [MK1775] (first compound 2 µM, partner dose 0.02 µM) | 86.4% | 170% | 129% | 34.8% | 102% | 46.9% |
| NC1(c2ccc(-c3nc4ccn5c(=O)[nH]nc5c4cc3-c3ccccc3)cc2)CCC1 + CC(C)C[C@H](NC(=O)[C@H](Cc1ccccc1)NC(=O)c1cnccn1)B(O)O [Bortezomib] (first compound 0.4 µM, partner dose 0.001 µM) | 272% | 236% | 112% | 56.2% | 167% | 194% |
| Cn1sc(=O)n(Cc2ccccc2)c1=O + C[C@@H]1CCN(C(=O)CC#N)C[C@@H]1N(C)c1ncnc2[nH]ccc12 [CP690550] (first compound 0.4 µM, partner dose 1 µM) | 106% | 82.2% | 92.8% | 117% | 77.5% | 177% |
| CN(c1ncccc1CNc1nc(Nc2ccc3c(c2)CC(=O)N3)ncc1C(F)(F)F)S(C)(=O)=O + CC(C)(C)c1cnc(CSc2cnc(NC(=O)C3CCNCC3)s2)o1 [SNS-032] (first compound 0.08 µM, partner dose 0.01 µM) | 128% | 108% | 115% | 161% | 98.9% | 81.7% |
| CC1(C)CCC(c2ccc(Cl)cc2)=C(CN2CCN(c3ccc(C(=O)NS(=O)(=O)c4ccc(N[C@H](CCN5CCOCC5)CSc5ccccc5)c(S(=O)(=O)C(F)(F)F)c4)cc3)CC2)C1 + OCCn1cc(-c2cnc3nnn(Cc4ccc5ncccc5c4)c3n2)cn1 [PF04217903] (first compound 0.4 µM, partner dose 1 µM) | 195% | 399% | 395% | 34.6% | 113% | 55.8% |
| CCN(CC)CCNC(=O)c1c(C)[nH]c(/C=C2\C(=O)Nc3ccc(F)cc32)c1C [sunitinib] + Cn1c(=O)n(-c2ccc(C(C)(C)C#N)cc2)c2c3cc(-c4cnc5ccccc5c4)ccc3ncc21 [NVP-BEZ235] (first compound 0.4 µM, partner dose 0.004 µM) | 198% | 27.8% | 108% | 56.9% | 69.2% | 88.5% |
| C[C@]1(O)C[C@@H](c2nc(-c3ccc4ccc(-c5ccccc5)nc4c3)c3c(N)nccn32)C1 + O=S(=O)(c1ccccc1)N(CC(F)(F)F)c1ccc(C(O)(C(F)(F)F)C(F)(F)F)cc1 [T0901317] (first compound 0.4 µM, partner dose 1.4 µM) | 198% | 36.9% | 121% | 95.5% | 89.9% | 166% |

Record cards (already shown):
Cn1cnc2c(F)c(Nc3ccc(Br)cc3Cl)c(C(=O)NOCCO)cc21 [selumetinib] + O=C1NC(=O)/C(=C/c2ccc(-c3ccc(F)cc3O)o2)S1 [AS252424] (first compound 0.015 µM, partner dose 1 µM) is listed with cleaved PARP positive nuclei fraction (WM115): 138%; cleaved PARP positive nuclei fraction (WM1716): 51.9%; cleaved PARP positive nuclei fraction (WM1745): 91.3%; cleaved PARP positive nuclei fraction (WM3526): 139%; cleaved PARP positive nuclei fraction (WM3619): 136%; cleaved PARP positive nuclei fraction (WM451Lu): 96.3%
COc1ccc(C2=N[C@@H](c3ccc(Cl)cc3)[C@@H](c3ccc(Cl)cc3)N2C(=O)N2CCNC(=O)C2)c(OC(C)C)c1 [Nutlin-3] + N#Cc1c(O)c2c(-c3ccc(-c4ccccc4O)cc3)csc2[nH]c1=O [A769662] (first compound 0.1 µM, partner dose 2 µM) is listed with cleaved PARP positive nuclei fraction (WM115): 146%; cleaved PARP positive nuclei fraction (WM1716): 85.5%; cleaved PARP positive nuclei fraction (WM1745): 96.8%; cleaved PARP positive nuclei fraction (WM3526): 70.3%; cleaved PARP positive nuclei fraction (WM3619): 70.5%; cleaved PARP positive nuclei fraction (WM451Lu): 138%
